The values below come from patent US20130295118A1 (CELLERANT THERAPEUTICS, published 2013).

Experiment [1] deals with Cynomolgus CLL-1 on cynomolgus PBMCs (cynomolgus monkey). As to the kind of experiment: FACS, cynomolgus PBMC populations.
For experiment [2] the target is unchanged. As to the kind of experiment: FACS staining of pooled cynomolgus PBMC (three donors), live-gated, populations defined by CD3, CD19, CD14 (granulocytes), CD14 (monocytes), CD89; antibody concentration not given.

These are yes or no findings as the source states them, for the method shown. Some binding calls cover weakened binding; strength is not graded here.

B1: human chimeric CLL-1 antibody ChiM26 (antibody, V domains shown)
VH: EVQLQQSGPELVKPGASVKMSCKASGYTFTSYFIHWVKQKPGQGLEWIGFINPYNDGSKYNEKFKGKATLTSDKSSSTAYMELSSLTSEDSAVYYCTRDDGYYGYAMDYWGQGTSVTVSS
VL: DIQMTQSPSSLSASLGERVSLTCRATQELSGYLSWLQQKPDGTIKRLIYAASTLDSGVPKRFSGNRSGSDYSLTISSLESEDFADYYCLQYAIYPYTFGGGTKLEIKR
Regarding B1, the binding entry in experiment [1] and in experiment [2] was “binds” each time.

B2: CLL-1 antibody clone M26 (antibody, V domains shown)
VH: EVQLQQSGPELVKPGASVKMSCKASGYTFTSYFIHWVKQKPGQGLEWIGFINPYNDGSKYNEKFKGKATLTSDKSSSTAYMELSSLTSEDSAVYYCTRDDGYYGYAMDYWGQGTSVTVSS
VL: DIQMTQSPSSLSASLGERVSLTCRATQELSGYLSWLQQKPDGTIKRLIYAASTLDSGVPKRFSGNRSGSDYSLTISSLESEDFADYYCLQYAIYPYTFGGGTKLEIKR
notes: Conjugated to saporin in the ADC assays
On to B2, for which the binding result in experiment [1] and in experiment [2] was “binds” throughout.

B3: human chimeric CLL-1 antibody ChiM31 (antibody, V domains shown)
VH: EVQLQQSGPELVKPGASVKMSCKASGYTFTSYVMHWVKQKPGQGLEWIGYINPYNDGTKYNEKFKGKATLTSDTSSSTAYMELNSLTSEDSAVYFCARPIYFDNDYFDYWGQGTTLKVSS
VL: TIVLTQSPASLAVSLGQRATISCRASESVDSYGNSFMHWYQQKPGQPPKLLIYLASNLESGVPARFSGSGSRTDFTLTIDPVEADDAATYYCQQNNYDPWTFGGGTKLEIK
Regarding B3, the binding entry in experiment [1] and in experiment [2] was “binds” in each case.

B4: CLL-1 antibody clone M31 (antibody, IgG2a, V domains shown)
VH: EVQLQQSGPELVKPGASVKMSCKASGYTFTSYVMHWVKQKPGQGLEWIGYINPYNDGTKYNEKFKGKATLTSDTSSSTAYMELNSLTSEDSAVYFCARPIYFDNDYFDYWGQGTTLKVSS
VL: TIVLTQSPASLAVSLGQRATISCRASESVDSYGNSFMHWYQQKPGQPPKLLIYLASNLESGVPARFSGSGSRTDFTLTIDPVEADDAATYYCQQNNYDPWTFGGGTKLEIK
With B4, the binding result in experiment [1] and in experiment [2] was “binds” each time.

B5: human chimeric CLL-1 antibody ChiG4 (antibody, V domains shown)
VH: EVQLQQSGPELVKPGASMKISCKASGYSFTGYTMNWVKQSHEKNLEWIGPINPYNDGTIYNPNFKGKATLTVDKASSTAYMELLSLTSDDPAVYYCARTDDYDDYTMDYWGQGTSVTVSS
VL: EIQMTQTPSSLSASLGDRVTISCRASHDISNYLNWYQQKPDGTLKLLIYYTSRLHSGVPSRFSGSGSGTDYSLTISNLEQEDIATYFCQQGKTLLWTFGGGTKLEIK
Consider B5, for which the binding result in experiment [1] and in experiment [2] was “binds” each time.

B6: CLL-1 antibody clone G4 (antibody, IgG1, V domains shown)
VH: EVQLQQSGPELVKPGASMKISCKASGYSFTGYTMNWVKQSHEKNLEWIGPINPYNDGTIYNPNFKGKATLTVDKASSTAYMELLSLTSDDPAVYYCARTDDYDDYTMDYWGQGTSVTVSS
VL: EIQMTQTPSSLSASLGDRVTISCRASHDISNYLNWYQQKPDGTLKLLIYYTSRLHSGVPSRFSGSGSGTDYSLTISNLEQEDIATYFCQQGKTLLWTFGGGTKLEIK
notes: also called 31.G4; 31G4
For B6, the binding entry in experiment [1] and in experiment [2] was “binds” throughout.
